Measurements reported in PubChem BioAssay AID1259308 (NCATS, 2017)

Purpose: 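Candidate targets for better recombinant protein yield in mammalian cells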 (primary screen)
System: human HEK293 embryonic kidney cells stably expressing firefly luciferase (HEK-CMV-Luc2-Hygro)
Reagent: single siRNA against human genes, 0.8 pmol siRNA per well
Timing: 72 h
Measured: 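Reporter luminescence and viable-cell signal on separate replicate plates, given as percent of non-targeting control and median/MAD z-scores, plus per-cell luciferase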
Reading the numbers: total luciferase, z-score and total luciferase, % of control: higher = more reporter protein produced; luciferase per cell, z-score: higher = more reporter output per viable cell; viable cells, % of control: higher = more viable cells
Rule for the call: 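An siRNA counts as active if its total luciferase robust z-score exceeds 3; genes with two or more such siRNAs out of three were retested with fresh siRNAs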
Calls: active = raised luciferase; inactive = no rise
This is a random part of about 59,000 reagents. About 1,510 of them (2.6%) were called active. 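Calls use total luciferase alone and ignore viability, so some active siRNAs may act by altering cell number.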 Unmarked entries are inactive. Reagents against one gene are numbered here. No sequences are given here.

gene symbol,reagent no.,"total luciferase, z-score","total luciferase, % of control","luciferase per cell, z-score","viable cells, % of control"
NR5A2,1,-0.208,77.8,-0.72,105
NR5A2,2,-0.00249,81.8,0.0053,91.3
NR5A2,3,-0.535,71.2,-0.108,81.9
UTY,1,-0.431,73.3,-0.64,97
UTY,2,-1.11,59.8,-1.69,104
UTY,3,-0.0805,80.3,-0.103,92.2
ZNF214,1,-0.316,75.6,-0.582,98.5
ZNF214,2,0.947,101,0.343,103
ZNF214,3,-0.595,70,-0.787,96.3
HERC2,1,1.86,119,1,102
HERC2,2,-0.529,71.4,-1.23,110
HERC2,3,-0.143,79,-0.44,99.2
SUCLG1,1,0.0509,82.9,0.148,89.1
SUCLG1,2,-0.773,66.5,-0.678,88.8
SUCLG1,3,-0.422,73.5,-0.284,88.5
ADAMTS19,1,4.31 (active),168,3.34,77.8
ADAMTS19,2,1.3,108,0.633,102
ADAMTS19,3,-0.294,76,-0.669,101
LAG3,1,1.51,112,1.8,77.8
LAG3,2,-0.16,78.7,-0.557,102
LAG3,3,-1.15,59.1,-1.42,96
DMRT3,1,0.381,89.5,0.381,90.4
DMRT3,2,0.0291,82.5,0.622,78.2
DMRT3,3,-2.33,35.6,-2.17,70.3
DLG3,1,-0.287,76.2,0.519,74.3
DLG3,2,-0.64,69.2,-0.788,95.1
DLG3,3,-0.236,77.2,-0.864,108
JSRP1,1,-0.586,70.2,0.864,62.5
JSRP1,2,0.959,101,0.674,94.5
JSRP1,3,-0.101,79.9,-0.0167,89.7
ZC3H11B,1,0.595,93.7,0.323,96.2
ZC3H11B,2,-2.56,31,-2.84,73.1
ZC3H11B,3,0.805,97.9,-0.0538,111
CEP20,1,-0.52,71.5,-0.479,90.7
CEP20,2,1.75,117,1.81,81
CEP20,3,-0.579,70.4,-0.782,96.6
OR4C45,1,0.832,98.4,1.78,68.8
OR4C45,2,0.458,91,0.854,81.2
OR4C45,3,-0.976,62.5,-1.21,96

A portion from the list above:
gene symbol,reagent no.,"total luciferase, z-score","total luciferase, % of control","luciferase per cell, z-score","viable cells, % of control"
HERC2,1,1.86,119,1,102
HERC2,2,-0.529,71.4,-1.23,110
HERC2,3,-0.143,79,-0.44,99.2
SUCLG1,1,0.0509,82.9,0.148,89.1
SUCLG1,2,-0.773,66.5,-0.678,88.8
